The values below come from paper doi:10.1101/2020.02.12.945634.

By UniProt entry, the sequences of proteins in these tests, tags left out. Where a name states a change or a piece, a line headed by the entry shows the natural chain unless it says otherwise. Chains listed by the source or under a name are the forms on record and can include a tag or linker. Residues count along the entry.
UniProt P01108: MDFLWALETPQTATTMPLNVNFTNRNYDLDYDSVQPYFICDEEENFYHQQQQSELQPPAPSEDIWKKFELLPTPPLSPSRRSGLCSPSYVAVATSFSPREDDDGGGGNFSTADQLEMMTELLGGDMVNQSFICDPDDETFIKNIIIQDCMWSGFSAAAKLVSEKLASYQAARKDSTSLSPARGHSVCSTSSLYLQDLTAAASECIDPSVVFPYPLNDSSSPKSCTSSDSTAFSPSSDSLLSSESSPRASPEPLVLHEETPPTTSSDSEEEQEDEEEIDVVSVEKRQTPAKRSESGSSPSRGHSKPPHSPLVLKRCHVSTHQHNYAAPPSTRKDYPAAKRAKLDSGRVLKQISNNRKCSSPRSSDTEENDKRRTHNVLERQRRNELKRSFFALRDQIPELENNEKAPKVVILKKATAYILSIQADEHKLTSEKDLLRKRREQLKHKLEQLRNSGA
mouse MYC tagged C-terminally with V5 (mMYC-V5), wild type: residues 16-454 of P01108
eGFP fused C-terminally with the native mMYC PEST domain (aa 202-268): residues 217-283 of P01108

Assay [1] addresses eGFP fused C-terminally with the native mMYC PEST domain (aa 202-268) (mouse) (UniProt P01108). Briefly: co-IP.
In assay [2] the target is mouse MYC tagged C-terminally with V5 (mMYC-V5), wild type (mouse) (UniProt P01108). Briefly: co-IP.

These are yes or no findings as the source states them, for the method shown. In cells and extracts the contact can be indirect. Some binding calls cover weakened binding; strength is not graded here.

Take “c-Myc epitope-tagged FBW7α (from UniProt Q969H0-1 1-707)”: the binding entry in assay [1] and in assay [2] was “binds” in each case.
